Experimental data: patent US20120039805A1, “Therapeutics And Methods For Treating Neoplastic Diseases Comprising Determining The Level Of Caveolin-1 And/Or Caveolin-2 In A Stromal Cell Sample” (PANGEA BIOSCIENCES, INC., priority 2009, published 2012)
For at least one compound, name, drawing or mass did not settle the structure.

Test system: Met-1 cells
Test: Met-1 cells orthotopically implanted into mammary glands of Cav-1 (−/−) deficient FVB mice, rapamycin treatment
Type: in vivo
Conditions: standard dose of rapamycin; 5 weeks post tumor cell injection

## CO[C@H]1C[C@@H]2CC[C@@H](C)[C@@](O)(O2)C(=O)C(=O)N2CCCC[C@H]2C(=O)O[C@H]([C@H](C)C[C@@H]2CC[C@@H](O)[C@H](OC)C2)CC(=O)[C@H](C)/C=C(\C)[C@@H](O)[C@@H](OC)C(=O)[C@H](C)C[C@H](C)/C=C/C=C/C=C/1C [rapamycin]
  effect on increased tumor growth/vascularization in the Cav-1 (−/−) mammary fat pad microenvironment: nearly completely abolished
